# Source: patent US20180037605A1, “SYNTHETIC PEPTIDES AND ENZYMATIC FORMATION OF INTRACELLULAR HYDROGELS” (BRANDEIS UNIVERSITY, priority 2015, published 2018)
# Not every detail of the peptide structures is certain; ends, links or a residue may be inferred.
# System: HeLa cells
# Test: Fluorescent confocal microscopy of HeLa cells
# Type: cell-based
# Conditions: 200 μM in culture medium, 37° C., 24 hours
row,SMILES,fluorescence emission in HeLa cells (confocal microscopy)
1,O=C(CCC(=O)OCCNC(=O)[C@@H](Cc1ccccc1)NC(=O)[C@@H](Cc1ccccc1)NC(=O)CCNc1ccc([N+](=O)[O-])c2nonc12)NCCS(=O)(=O)O [1-t],significant fluorescence in cytoplasm
2,O=C(CCC(=O)NCCS(=O)(=O)O)NCCNC(=O)[C@@H](Cc1ccccc1)NC(=O)[C@@H](Cc1ccccc1)NC(=O)CCNc1ccc([N+](=O)[O-])c2nonc12 [2-t],a few yellow bright spots inside cells
3,O=C(O)CCC(=O)OCCNC(=O)[C@@H](Cc1ccccc1)NC(=O)[C@@H](Cc1ccccc1)NC(=O)CCNc1ccc([N+](=O)[O-])c2nonc12 [compound 1],hardly showed any yellow fluorescence inside cells
